The values that follow come from PubChem BioAssay AID493014 (National Center for Advancing Translational Sciences (NCATS), 2011).

The nature of this experiment: qHTS Assay to Find Inhibitors of Chronic Active B-Cell Receptor Signaling. The settings on record: ABC-DLBCL IkBa-CBG/CBR reporter, luminescence ratio (green luciferase fused to IkBa over red control in TMD8 lymphoma cells), 4 h. The essentials:
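Concentration-response series (up to 46 uM) were applied to TMD8 dual-reporter cells for 4 h at 37C with doxycycline. Green/red ratio, after filter-overlap correction, defined %Activity; red signal alone was normalised to basal cells and zero luminescence.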

[1] abbreviates: measured here: CBR red luminescence, cell number.

Each structure is given as a SMILES string. The list shows a part of the results. The main result of the screen is listed elsewhere. These columns were measured beside it and carry no call. Compounds called inactive in the main read-out are mostly missing here. Words in brackets tell the shape of the fitted curve; partial curves, single points and poor fits give uncertain potencies.

As for `O=c1oc2ccc3ccccc3c2c2c1SC(C(F)(F)F)C2` (stereo not drawn), the AC50 under setting [1] is 20.6 µM [rising, single point].

Take `CC(C)c1[nH]nc2c1C1(CCN(Cc3ccccc3)CC1)C(C#N)=C(N)O2`: the half-maximal activity concentration (AC50) under setting [1] was 29.1 µM [falling, single point].

Regarding `Cc1cc2occ(CC(=O)N(C)CC(=O)Nc3ccccc3C(F)(F)F)c2cc1C`, the AC50 under setting [1] was 25.9 µM [rising, partial curve].

As for `CCn1nnc2cc(C(=O)Nc3cc(OC)cc(OC)c3)ccc21`, under setting [1], the AC50 is 6.51 µM [falling, partial curve, poor fit].

With `c1ccc(Oc2nc(-c3ccccn3)nc3ccccc23)cc1`, the AC50 under setting [1] was 17.8 µM [falling, single point].

Regarding `CCOC(=O)CSc1cccc2cccnc12`, under setting [1], the AC50 is 29.1 µM [falling, single point].

Consider `Cc1ccccc1NC(=S)NC1CCCC1`, for which the AC50 under setting [1] was 14.1 µM [rising, partial curve, poor fit].

Regarding `COc1cc2[nH]c(=S)nc(NC3CCCC3)c2cc1OC`, the half-maximal activity concentration (AC50) under setting [1] is 35.5 µM [falling, single point].

For the compound `Cc1nc2cc(NC(=O)C3COc4ccccc4O3)ccc2s1` (stereo not drawn), the AC50 under setting [1] was 0.126 µM [rising, full curve, poor fit].

For the compound `O=C(Nc1cccc(Cl)c1)OCc1ccccn1`, the AC50 under setting [1] was 22.4 µM [falling, single point].

For `Cc1ccccc1/C=C\c1nc2ccccc2c(=O)[nH]1`, the half-maximal activity concentration (AC50) under setting [1] is 5.01 µM [falling, full curve].

For `S=C(NCCc1ccccc1)Nc1ccc(Cl)cc1`, the AC50 under setting [1] is 1.84 µM [rising, partial curve, poor fit].

`Cc1nn(-c2ccccc2)c2c1C(c1ccc([N+](=O)[O-])cc1)N1C(=N2)C(=O)Nc2ccccc21` (stereo not drawn): the AC50 under setting [1] was 20.6 µM [falling, single point].

Take `CC1=C(C(=O)Nc2ccccc2)C(c2ccc(Cl)cc2)n2c(s/c(=C/c3cccc(OCC(=O)O)c3)c2=O)=N1` (stereo not drawn): the AC50 under setting [1] was 25.1 µM [falling, single point].

As for `COc1cccc(N2CCN(c3nc(C)cc(C)c3C#N)CC2)c1`, the concentration at half-maximal activity (AC50) under setting [1] was 3.55 µM [rising, single point].

For the compound `O=C(Nc1nc(-c2ccccc2)cs1)c1ccc(S(=O)(=O)N2CCc3ccccc32)cc1`, the half-maximal activity concentration (AC50) under setting [1] is 1.16 µM [falling, full curve].

As to `CSc1ccccc1OCc1cc(C(=O)N(C)Cc2cnccn2)no1`, the AC50 under setting [1] is 7.08 µM [falling, partial curve, poor fit].

Consider `CN1CCN(CC(=O)Nc2nc3ccccc3s2)CC1`, for which the AC50 under setting [1] was 5.01 µM [rising, single point].

As to `Nc1nonc1C(=O)N/N=C/c1ccc(-c2cccc(C(=O)O)c2)o1`, under setting [1], the AC50 was 7.94 µM [falling, partial curve].

On to `Cc1cc(-c2cccs2)nc(-n2cccc2)n1`, for which, under setting [1], the AC50 was 0.2 µM [rising, full curve, poor fit].

With `Cc1ccc(-c2nc(C)sc2CC(=O)OCC(=O)Nc2c(F)cccc2F)cc1`, under setting [1], the AC50 is 0.517 µM [rising, full curve, poor fit].

Consider `C[C@H]1O[C@@H](O[C@H]2[C@@H](O)C[C@H](O[C@H]3[C@@H](O)C[C@H](O[C@H]4CC[C@@]5(C)[C@H](CC[C@@H]6[C@@H]5C[C@@H](O)[C@]5(C)[C@@H](C7=CC(=O)OC7)CC[C@]65O)C4)O[C@@H]3C)O[C@@H]2C)C[C@H](O)[C@@H]1O`, for which, under setting [1], the AC50 is 0.447 µM [falling, full curve, poor fit].

Consider `Cc1cccc(N2CCN(C(=O)c3ccc(NS(=O)(=O)c4c(C)noc4C)cc3)CC2)c1C`, for which, under setting [1], the half-maximal activity concentration (AC50) was 25.9 µM [falling, single point].

For `CCOCCCNC(=O)C1CC(=O)N(CCc2ccccc2)C1` (stereo not drawn), the AC50 under setting [1] was 35.5 µM [rising, single point].

As for `Cc1sc(NC(=O)Nc2ccccc2)c(C(N)=O)c1C`, under setting [1], the AC50 was 14.1 µM [falling, single point].

For the compound `COc1ccc2nc(NC(=O)c3ccc([N+](=O)[O-])o3)sc2c1`, the AC50 under setting [1] was 3.98 µM [falling, full curve].

Turning to `Cc1cnc(NC(=O)CSc2nc3ccccc3s2)s1`, the half-maximal activity concentration (AC50) under setting [1] was 23.1 µM [falling, partial curve, poor fit].

Consider `O=C(COC(=O)c1ccccc1[N+](=O)[O-])c1ccc(C2CCCCC2)cc1`, for which the concentration at half-maximal activity (AC50) under setting [1] was 2.82 µM [rising, single point].

`CCOC(=O)C(C)NC(=O)CCc1nnc2ccc(N3CCCCC3)nn12` (stereo not drawn): under setting [1], the AC50 was 0.355 µM [rising, full curve, poor fit].

Regarding `O=C(COC(=O)[C@@H]1CC(O)CN1S(=O)(=O)c1ccc([N+](=O)[O-])cc1)NC12CC3CC(CC(C3)C1)C2` (stereo partly drawn), the half-maximal activity concentration (AC50) under setting [1] is 0.0517 µM [rising, full curve, poor fit].

Regarding `Oc1c(CN2CCCCC2)cc(COCc2ccccc2)c2cccnc12`, the half-maximal activity concentration (AC50) under setting [1] was 0.501 µM [rising, full curve].

For the compound `Cc1ccc(/C=N/NS(=O)(=O)c2ccc([N+](=O)[O-])cc2)o1`, under setting [1], the AC50 is 8.2 µM [rising, partial curve, poor fit].

Consider `O=c1c(Cc2ccc(Cl)cc2Cl)c(O)ccn1Cc1ccc(Cl)cc1`, for which, under setting [1], the AC50 was 8.2 µM [falling, partial curve].

Take `CCc1ccn2cc(-c3cc(-c4ccccc4)no3)nc2c1`: the AC50 under setting [1] was 3.55 µM [falling, partial curve, poor fit].

`CCCS(=O)(=O)N1CCC(Cc2ccc(OC)cc2)(C(=O)OCC)CC1`: the AC50 under setting [1] was 11.2 µM [rising, partial curve, poor fit].

As for `CC(C)CSc1nnc2[nH]c(=O)cc(N)n12`, the AC50 under setting [1] was 16.4 µM [rising, partial curve, poor fit].

Turning to `O=C(CCCN1C(=O)/C(=C/c2ccc3c(c2)OCO3)SC1=S)Nc1cccc(C(=O)O)c1`, the AC50 under setting [1] was 35.5 µM [rising, single point].

As to `Cc1cc(Nc2ccccc2)n2nc(C)c(-c3ccccc3)c2n1`, the AC50 under setting [1] was 6.31 µM [falling, partial curve, poor fit].

For `C=CCn1c(SCc2nc3ccccc3nc2C)nnc1-c1ccoc1C`, the AC50 under setting [1] was 22.4 µM [falling, single point].

In the case of `CC(C)C(CCNC1CCN(C)CC1)c1ccc(Cl)cc1` (stereo not drawn), the concentration at half-maximal activity (AC50) under setting [1] was 6.31 µM [falling, partial curve, poor fit].

With `N#CC1=C(N)N(c2ccccc2)C(c2ccccc2)C1(C#N)C#N` (stereo not drawn), the concentration at half-maximal activity (AC50) is 3.16 µM [rising, partial curve, poor fit] under setting [1] and 3.16 µM [falling, partial curve, poor fit] (measured here: IkBa-CBG green luminescence).

As to `O/N=C(\c1ccc(Cl)cc1)c1cc2ccccc2o1`, the AC50 under setting [1] was 7.31 µM [rising, single point].

In the case of `CCc1nc(NCC(C)C)c(C#N)c2c1COC(C)(C)C2`, the AC50 under setting [1] is 22.4 µM [falling, single point].

With `O=C(NC(Nc1nc2ccc([N+](=O)[O-])cc2s1)(C(F)(F)F)C(F)(F)F)c1ccccc1`, under setting [1], the AC50 was 0.731 µM [falling, full curve].

Turning to `Cc1cc(C)n2nnnc2c1C#N`, the AC50 under setting [1] was 16.4 µM [rising, partial curve, poor fit].

As to `Cc1cccc(-c2noc(CN(C(=O)c3c(-c4ccccc4Cl)noc3C)C(C)C)n2)c1`, the half-maximal activity concentration (AC50) under setting [1] is 14.1 µM [falling, single point].

`O=S(=O)(c1cc(C(F)(F)F)ccc1Cl)N1CCN(c2ccccn2)CC1`: the AC50 under setting [1] is 35.5 µM [rising, single point].

Take `Cc1nc(NC(=O)c2ccccc2)sc1-c1csc(Nc2cccc(F)c2)n1`: under setting [1], the AC50 is 5.62 µM [falling, partial curve, poor fit].

Turning to `CC1(C)CC(CCN(Cc2ccccc2)C(=O)c2ccco2)(c2ccccc2)CCO1` (stereo not drawn), under setting [1], the half-maximal activity concentration (AC50) is 4.11 µM [falling, partial curve, poor fit].

`O=[N+]([O-])c1cccc(S(=O)(=O)c2ccc(NCCO)c([N+](=O)[O-])c2)c1`: the AC50 under setting [1] is 0.708 µM [falling, partial curve, poor fit].

Turning to `CSc1cc(-c2ccccc2)n(Cc2ccc(Cl)cc2Cl)c(=O)c1C#N`, the AC50 under setting [1] was 1.03 µM [rising, partial curve, poor fit].

On to `CC(=O)N(c1ccccc1)c1nnc(-c2cnc(C)cn2)s1`, for which the concentration at half-maximal activity (AC50) under setting [1] is 0.282 µM [rising, full curve, poor fit].

Take `CCCCNC(=O)CC1N=C2c3ccccc3N=C(SCC(=O)Nc3ccccc3OC)N2C1=O` (stereo not drawn): under setting [1], the AC50 was 14.1 µM [falling, partial curve, poor fit].

`COc1ccccc1N(Cc1cc(=O)[nH]c2ccccc12)C(=O)C(C)C`: the concentration at half-maximal activity (AC50) under setting [1] is 14.1 µM [falling, single point].

As to `O=C(Nc1ccc(O)cc1C(=O)O)c1cccs1`, the half-maximal activity concentration (AC50) under setting [1] was 35.5 µM [falling, single point].

Turning to `COc1cc(NC(=O)CSc2ncnc3scc(-c4ccccc4)c23)c(C(=O)O)cc1OC`, the AC50 under setting [1] is 11.2 µM [rising, partial curve, poor fit].

Regarding `Cc1ccc(NC(=O)C2CCCN(C(=O)c3ccc(Cl)cc3)C2)cc1S(=O)(=O)N1CCOCC1` (stereo not drawn), the AC50 under setting [1] is 17.8 µM [rising, partial curve, poor fit].

Turning to `O=C(COc1ccc(Br)cc1CNC1CCCC1)Nc1ccccc1`, the AC50 under setting [1] is 31.6 µM [falling, single point].

For `COc1ccc(N2C(=O)CC(Sc3nnnn3-c3ccc(F)cc3)C2=O)cc1` (stereo not drawn), the AC50 under setting [1] was 11.2 µM [falling, partial curve].

As to `CCOC(=O)N1CCC(NC(=O)c2cc3c(=O)[nH]c4ccccc4c3n2C)CC1`, under setting [1], the AC50 is 2.82 µM [rising, full curve, poor fit].

Turning to `COCCNC(=S)N1CCCN(c2nc3cc(C)ccc3cc2C#N)CC1`, the AC50 under setting [1] was 1.26 µM [rising, full curve, poor fit].

On to `COc1cc2c(cc1OC)CN(S(C)(=O)=O)CC2`, for which the concentration at half-maximal activity (AC50) under setting [1] was 6.51 µM [falling, single point].
